# Laboratory results reported in patent EP2153845A1, “Endoglin peptides, vaccines and methods for preparing the same” (Julius-Maximilians-Universität Würzburg, priority 2008, dated 2010).
# Some of these results come from one statement about several compounds together.
# Target: T1, HLA-A2 (Homo sapiens, UniProt P04439, D140Y/D185E/D98H/E176V/E277Q/G131W/G231S/I119V/I121R/I166T/I218V/L300P/L318F/N151K/N90K/P208A/P217A/Q86G/Q94H/R138H/R169H/T345S)
# T1 construct: to the acid-stripped HLA-A2 positive cell line JY; endogenous in cells; host or cells: JY (human HLA-A*0201-positive B-LCL), acid-stripped
# Test: competitive binding assay for binding to HLA-A2 molecules
# Conditions: affinity class in words, JY cells
substance,measurement,value
SEQ ID NO: 3 (LILQGPPYV),binding affinity to HLA-A2,high binding affinity
